Source: PMC5120601
These are yes or no findings as the source states them, for the method shown. In cells and extracts the contact can be indirect. Some binding calls cover weakened binding; strength is not graded here. Values belong to the molecule of their own block, whether it stands above or below them.

By UniProt entry, the sequences of proteins in these tests, tags left out. Where a name states a change or a piece, a line headed by the entry shows the natural chain unless it says otherwise. Chains listed by the source or under a name are the forms on record and can include a tag or linker. Residues count along the entry.
UniProt P12004: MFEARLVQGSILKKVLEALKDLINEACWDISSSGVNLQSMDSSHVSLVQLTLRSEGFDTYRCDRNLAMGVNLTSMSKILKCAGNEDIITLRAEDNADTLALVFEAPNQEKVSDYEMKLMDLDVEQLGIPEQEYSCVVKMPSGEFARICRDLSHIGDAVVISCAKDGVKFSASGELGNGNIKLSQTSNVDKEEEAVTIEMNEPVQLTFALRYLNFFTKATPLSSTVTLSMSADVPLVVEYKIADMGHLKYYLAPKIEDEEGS
UniProt P02545: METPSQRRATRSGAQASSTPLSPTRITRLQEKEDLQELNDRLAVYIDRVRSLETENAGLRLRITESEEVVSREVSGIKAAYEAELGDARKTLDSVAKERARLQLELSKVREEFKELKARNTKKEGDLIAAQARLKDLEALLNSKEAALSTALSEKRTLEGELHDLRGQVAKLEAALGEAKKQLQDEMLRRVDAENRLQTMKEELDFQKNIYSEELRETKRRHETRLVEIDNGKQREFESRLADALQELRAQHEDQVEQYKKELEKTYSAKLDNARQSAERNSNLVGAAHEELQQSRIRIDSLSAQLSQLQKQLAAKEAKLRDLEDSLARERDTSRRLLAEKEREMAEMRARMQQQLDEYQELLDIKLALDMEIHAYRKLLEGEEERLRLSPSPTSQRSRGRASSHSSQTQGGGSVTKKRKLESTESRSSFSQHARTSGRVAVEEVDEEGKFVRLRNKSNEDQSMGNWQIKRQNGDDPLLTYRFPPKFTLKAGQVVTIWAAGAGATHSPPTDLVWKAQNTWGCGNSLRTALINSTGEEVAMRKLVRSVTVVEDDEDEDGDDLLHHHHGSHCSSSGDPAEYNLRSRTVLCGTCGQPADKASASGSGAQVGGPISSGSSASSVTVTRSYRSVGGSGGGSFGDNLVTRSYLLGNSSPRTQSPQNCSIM
GST-lamin A: residues 1-646 of P02545
lamin C (of lamins A/C) (human (endogenous in U2OS)) (P02545-2, form named): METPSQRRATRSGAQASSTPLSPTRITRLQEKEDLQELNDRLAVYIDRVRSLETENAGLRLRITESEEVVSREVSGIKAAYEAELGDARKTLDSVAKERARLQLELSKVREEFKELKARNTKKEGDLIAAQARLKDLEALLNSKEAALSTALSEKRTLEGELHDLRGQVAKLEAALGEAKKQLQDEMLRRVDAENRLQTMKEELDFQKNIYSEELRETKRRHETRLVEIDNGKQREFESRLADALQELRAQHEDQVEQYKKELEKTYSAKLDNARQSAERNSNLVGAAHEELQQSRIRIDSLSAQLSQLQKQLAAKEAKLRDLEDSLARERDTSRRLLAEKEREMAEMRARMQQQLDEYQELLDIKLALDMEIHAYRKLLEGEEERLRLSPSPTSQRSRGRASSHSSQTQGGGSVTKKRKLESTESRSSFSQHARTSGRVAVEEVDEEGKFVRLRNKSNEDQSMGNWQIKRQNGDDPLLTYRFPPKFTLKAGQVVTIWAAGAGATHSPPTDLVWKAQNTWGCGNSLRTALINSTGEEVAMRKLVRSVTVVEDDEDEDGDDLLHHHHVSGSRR

Tests used:
[1] = molecular target: proliferating cell nuclear antigen (PCNA) (human (endogenous in U2OS)) (UniProt P12004); experiment: co-IP; U2OS extract, anti-PCNA antibody and Protein G beads, 4°C; cells treated with control or Face1 siRNA (prelamin A accumulation; lamins A/C precipitated reduced by approximately 25%), with or without doxorubicin; western blot
GST-lamin A = GST-lamin A (UniProt P02545); experiment: pull-down; GST-lamin A as bait, GST alone as control; with or without UV-induced DNA lesions; western blot; performed as previously described (ref. 42); only the target purified
[2] = molecular target: lamin A (mature, of lamins A/C) (human (endogenous in U2OS)) (UniProt P02545); experiment: co-IP; reverse IP: U2OS extract, anti-Lamin A/C antibody and Protein G beads, 4°C; cells with or without prelamin A accumulation (less PCNA with prelamin A); western blot
[3] = molecular target: lamin C (of lamins A/C) (human (endogenous in U2OS)) (UniProt P02545); experiment: as above
[4] = molecular target: FLAG-tagged uncleavable form of prelamin A mutated within the Zmpste24 cleavage site (L647R) (UniProt P02545); experiment: co-IP; U2OS cells transduced with FLAG-tagged UCLA or EGFP; lysate in IP buffer (10 mM Tris pH 7.5, 150 mM NaCl, 1 mM EDTA, 1% Triton X-100); ANTI-Flag M2 Affinity Gel, 4°C, 2 h; western blot

binding [1]: binds
Molecule: lamin A (mature, of lamins A/C) (from UniProt P02545 1-646)

binding [1]: binds
Molecule: lamin C (of lamins A/C) (from UniProt P02545-2 1-572)

binding (GST-lamin A): binds
binding [2]: binds
binding [3]: binds
binding [4]: binds
Molecule: proliferating cell nuclear antigen (PCNA) (from UniProt P12004 1-261)

binding (GST-lamin A): no binding
B1: USP3 (protein, UniProt Q9Y6I4 1-520)
chain: MECPHLSSSVCIAPDSAKFPNGSPSSWCCSVCRSNKSPWVCLTCSSVHCGRYVNGHAKKHYEDAQVPLTNHKKSEKQDKVQHTVCMDCSSYSTYCYRCDDFVVNDTKLGLVQKVREHLQNLENSAFTADRHKKRKLLENSTLNSKLLKVNGSTTAICATGLRNLGNTCFMNAILQSLSNIEQFCCYFKELPAVELRNGKTAGRRTYHTRSQGDNNVSLVEEFRKTLCALWQGSQTAFSPESLFYVVWKIMPNFRGYQQQDAHEFMRYLLDHLHLELQGGFNGVSRSAILQENSTLSASNKCCINGASTVVTAIFGGILQNEVNCLICGTESRKFDPFLDLSLDIPSQFRSKRSKNQENGPVCSLRDCLRSFTDLEELDETELYMCHKCKKKQKSTKKFWIQKLPKVLCLHLKRFHWTAYLRNKVDTYVEFPLRGLDMKCYLLEPENSGPESCLYDLAAVVVHHGSGVGSGHYTAYATHEGRWFHFNDSTVTLTDEETVVKAKAYILFYVEHQAKAGSDKL
